Measured values as given in article PMC13068211.
These are yes or no findings as the source states them, for the method shown. Binding seen in cells or lysates may run through a third protein. Some entries that bind do so weakly or less than the wild type.

The chains behind the UniProt entries cited, without tags or fusion partners. Residues count along the entry.
UniProt Q9HD89, residues 19-108: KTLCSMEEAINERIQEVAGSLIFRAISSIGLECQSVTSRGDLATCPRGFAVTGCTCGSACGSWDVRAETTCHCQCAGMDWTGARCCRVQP
UniProt Q06187: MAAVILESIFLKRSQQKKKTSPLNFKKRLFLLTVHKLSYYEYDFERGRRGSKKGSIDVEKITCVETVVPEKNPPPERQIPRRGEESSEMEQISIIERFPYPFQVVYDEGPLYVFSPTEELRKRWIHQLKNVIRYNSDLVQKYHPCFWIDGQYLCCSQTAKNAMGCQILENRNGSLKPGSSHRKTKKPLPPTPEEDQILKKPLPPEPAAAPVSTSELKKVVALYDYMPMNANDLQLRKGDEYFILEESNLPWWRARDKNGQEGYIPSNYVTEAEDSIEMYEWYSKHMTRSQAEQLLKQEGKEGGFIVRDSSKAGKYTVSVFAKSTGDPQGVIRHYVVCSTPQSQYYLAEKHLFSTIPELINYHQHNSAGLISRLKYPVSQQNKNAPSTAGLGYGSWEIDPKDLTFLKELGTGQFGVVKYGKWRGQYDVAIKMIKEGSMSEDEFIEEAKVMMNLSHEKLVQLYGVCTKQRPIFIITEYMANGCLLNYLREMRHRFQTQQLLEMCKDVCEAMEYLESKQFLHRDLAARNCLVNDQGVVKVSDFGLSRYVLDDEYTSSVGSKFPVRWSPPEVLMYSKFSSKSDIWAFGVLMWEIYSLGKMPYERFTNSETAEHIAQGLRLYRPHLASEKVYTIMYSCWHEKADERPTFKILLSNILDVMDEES

Target: FLAG-tag recombinant human resistin protein (human) (UniProt Q9HD89)
Assay: co-IP; purified FLAG-hResistin mixed with hypoxic THP-1 macrophage lysate in 30 mM HEPES, 150 mM NaCl, 2 mM beta-mercaptoethanol, pH 7.5, 30 min at 30°C; then overnight at 4°C with anti-FLAG antibody-coupled AminoLink Plus resin; eluates blotted with anti-FLAG M2-HRP or anti-BTK; only the target purified

Bruton's tyrosine kinase (from UniProt Q06187 1-659) (enzyme)
binding: binds
